Reference: article PMC12595502
These are yes or no findings as the source states them, for the method shown. Binding can be weak; no strength is given. Where a sequence is shown, tags or fusion partners need not be part of it.

Target: GAL4 DNA binding domain-fused syntaxin1 B cytosolic fraction (UniProt P61265)
Assay: two-hybrid

| Molecule | binding |
| --- | --- |
| GAL4 DNA activating domain-fused Syb2 cytosolic fraction, E78A (from UniProt P63045) (domain or fragment) | binds |
| GAL4 DNA activating domain-fused Syb2 cytosolic fraction, G73W (from UniProt P63045) (domain or fragment) | binds |
| GAL4 DNA activating domain-fused Complexin2 (protein, UniProt P84087 1-134) MDFVMKQALGGATKDMGKMLGGEEEKDPDAQKKEEERQEALRQQEEERKAKHARMEAEREKVRQQIRDKYGLKKKEEKEAEEKAALEQPCEGSLTRPKKAIPAGCGDEEEEEEESILDTVLKYLPGPLQDMFKK | binds |
